# Strings that start with PEPTIDE1 are HELM notation: dots part the residues, brackets hold end groups and non-standard residues.
# Experiment: general procedure: Boc solid-phase peptide synthesis; benzhydrylamine (BHA) resin, Boc-Gly-resin 1.19 mmol/g
# Conditions: whole synthesis
substance,measurement,value
"PEPTIDE1{[Pmp].[D-Tyr(Et)].F.V.N.C.R.G.[am]}$PEPTIDE1,PEPTIDE1,1:R3-6:R3$$$V2.0",crude yield,40%

# — patent US4481193A (SmithKline Beckman Corporation, priority 1984, dated 1984)
